Assay results published in article PMC10304164, “Laurequinone, a Lead Compound against Leishmania” (Marine Drugs, 2023).

Experiments:
[1] = tested on: Leishmania amazonensis promastigotes; assay: Alamar Blue assay against promastigotes; format: cell-based; details: CC50 murine macrophages / IC50 promastigotes
Method: Leishmania amazonensis (MHOM/BR/77/LTB0016) promastigotes were cultured in RPMI 1640 medium (Gibco, Waltham, MA, USA), supplemented with 10 % FBS at 26 °C. Additionally, for maintenance, the promastigotes were cultured in SND medium (Sigma-Aldrich, Darmstadt, Germany) supplemented with 10 % FBS at 26 °C. Both media were supplemented with gentamicin at 10 µg/mL.
Compounds 1–5 were tested against promastigotes of Leishmania amazonensis using the colorimetric assay based on the Alamar Blue® reagent. In a 96-well plate, serial dilutions of the compounds and the promastigote form of the parasite (10^6 cells/mL) were added at a final volume of 200 µL.

[2] = tested on: L. amazonensis intracellular amastigotes; assay: Alamar Blue assay against intracellular amastigotes in murine macrophages; format: cell-based, Leishmania amazonensis; details: CC50 murine macrophages / IC50 amastigotes
Method: Briefly, in a 96-well plate, murine macrophages (2 × 10^5 cells/mL) were incubated in RPMI medium at 37 °C and 5 % CO2 atmosphere for 2–4 h. Promastigote forms of L. amazonensis (2 × 10^6 cells/mL) were added to reach a 1:10 macrophage:parasite ration, and after 24 h of incubation, the cells were washed to discard the not-introduced parasites. Serial dilutions of the compound were added in 100 µL of RPMI medium. Following 24 h of incubation, the plate was washed, and the cells were broken with SDS 0.05% for 30 s. Fresh medium was added, and 48 h later, 10% Alamar Blue® reagent was added.

SMILES	SI (promastigotes) [1]	SI (amastigotes) [2]
Cc1cc2c(cc1Br)[C@]1(C)CC[C@H](C)[C@]1(C)O2 [Aplysin (5), aplysin]	20.3	
C=C1[C@@H](C)CC[C@@]1(C)c1cc(Br)c(C)cc1O [Isolaurinterol (4), isolaurinterol]	2.4	
Cc1cc(O)c([C@]2(C)CC[C@@H]3C[C@@]32C)cc1Br [Laurinterol (2), laurinterol]	2.3	2.3
